PMC6529005
For some of these results: Weaker means in comparison with the reference protein, sequence or condition of that experiment. For some of these results: For at least one entry, the source does not settle the construct or the ends of the probe. For some of these results: At least one result comes from cells or an extract, where the contact may be indirect. For some of these results: At least one verdict was read from the data and is not stated in words by the source.

How the values were obtained:
[1] = biological target: FMRP S500D (UniProt Q06787); experiment: EMSA; details: 200 nM RNA, up to 1:2; EMSA: 0.5x TBE native gels at 4 C (5 mM KCl for PSD-95 RNAs), incubation at room temperature 15-20 min; recombinant protein; residues 1-632; protein details: C-terminal 6xHis
[2] = biological target: endogenous FMRP (mouse (E17 brain)) (UniProt P35922); experiment: pull-down, immunoblot; details: RIPA, mouse brain lysate; pull-down: RIPA (150 mM NaCl, 50 mM Tris pH 8.0), room temperature; protein in an extract
[3] = biological target: endogenous phosphorylated FMRP (P-FMRP) (mouse (E17 brain)) (UniProt P35922); experiment: pull-down, immunoblot; details: RIPA, mouse brain lysate; pull-down: RIPA (150 mM NaCl, 50 mM Tris pH 8.0), room temperature; protein in an extract
[4] = biological target: FMRP RGG peptide (UniProt Q06787); experiment: EMSA; details: 5 mM KCl; EMSA: 0.5x TBE native gels at 4 C (5 mM KCl for PSD-95 RNAs), incubation at room temperature 15-20 min

Sequence: UCCCUGAGACCCUUUAGACUGUGA [miR-125a-Mut]
- binding result [1]: binds more weakly

Sequence: GGGAAAAGGGAGGGAUGGGUCUAGGGAGUGGGAAAUGCGGGAGGGAGGGUGGG [Bi-PSD-95 Q1-Q2]
- binding result [2]: binds
- binding result [3]: binds

Sequence: GGGAAAAGGGAGGGAUGGG [PSD-95 Q11234]
- binding result [4]: binds
